# Measured values as given in the supplement of paper PMC12823440, “Inhibitors supercharge kinase turnover through native proteolytic circuits” (Nature, 2025).
# Chains of the proteins cited; added tags and fusions are not shown. Lines headed by an entry give the natural chain unless they say otherwise; changes in a name come on top.
# UniProt P53667: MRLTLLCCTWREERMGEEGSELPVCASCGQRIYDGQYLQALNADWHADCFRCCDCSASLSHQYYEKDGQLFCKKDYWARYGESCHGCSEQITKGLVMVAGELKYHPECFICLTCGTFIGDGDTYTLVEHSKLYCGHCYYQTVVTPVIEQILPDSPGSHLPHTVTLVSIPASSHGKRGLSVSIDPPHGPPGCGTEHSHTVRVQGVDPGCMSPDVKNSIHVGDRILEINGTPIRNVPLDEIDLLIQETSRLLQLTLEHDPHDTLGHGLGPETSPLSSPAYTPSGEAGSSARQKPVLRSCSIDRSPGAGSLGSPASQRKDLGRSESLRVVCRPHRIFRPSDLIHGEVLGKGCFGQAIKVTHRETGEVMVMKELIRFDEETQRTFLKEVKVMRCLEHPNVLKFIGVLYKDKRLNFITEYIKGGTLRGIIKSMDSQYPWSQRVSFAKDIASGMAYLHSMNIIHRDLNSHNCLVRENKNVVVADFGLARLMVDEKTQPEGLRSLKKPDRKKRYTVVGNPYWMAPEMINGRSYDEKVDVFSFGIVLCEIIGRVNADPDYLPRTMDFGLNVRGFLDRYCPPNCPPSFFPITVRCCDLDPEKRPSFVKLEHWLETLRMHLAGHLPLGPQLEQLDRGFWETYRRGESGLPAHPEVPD
# Counter-ions that a name gives are not always drawn. This is one part of the list. Hit calls seldom repeat between salt and free forms of one compound.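 Kinases, fused to nanoluciferase, were expressed in K562 cells; luminescence was measured every 4 h from 2 to 18 h as percent of control (DMSO = 100%, positive control = 0%). A time point is decreased if signal falls significantly (2 sigma). Hits were called by the authors by a rule that is not shown; the count of time points alone does not decide it.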
# Target: LIMK1 (UniProt P53667)
# Test: number of time points (of 5) at which kinase-Nluc abundance scored as decreased, DMSO-normalised (count); higher = more persistent destabilization
# Conditions: K562; 2-18 h
row,Structure (SMILES),number of time points
1,CC(C)c1ccc(CC(=O)N2CCN(c3ccc(C#N)nn3)CC2)cc1 (10 µM),0
2,C=CC(=O)N1CCC[C@@H](n2nc(C(=O)Nc3ccc(CC(=O)N(C)C)c(C)c3C)c3c(N)ncnc32)C1 (10 µM),0
3,O=C(O)CCc1ccc(NCc2cccc(Oc3ccccc3)c2)cc1 (10 µM),0
4,CCc1c(C)sc(NC(=S)NC(=O)c2ccc(Cl)cc2)c1C(N)=O (10 µM),0
5,C=CC(=O)Nc1cccc(-n2c(=O)cc(C)c3cnc(Nc4ccc(OCCN(C)C)cc4OC)nc32)c1 (10 µM),0
6,C=C(F)C(=O)N1CCN(c2nc(OC[C@@H]3CCCN3C)nc3c2CCN(c2cccc4cccc(Cl)c24)C3)C[C@@H]1CC#N (2.5 µM),0
7,COc1ncc(Nc2ncc([C@@H](C)N3CCN(S(C)(=O)=O)CC3)cc2-c2nc(C)nc(N)n2)cc1F (10 µM),0
8,COc1ccc2c(c1OC)OC1c3ccc(O)cc3OCC21 (centres undefined) [Methylnissolin] (10 µM),0
9,O=C(CO)N1CCC(c2n[nH]c(-c3ccc(Cl)cc3)c2-c2ccncn2)CC1 (10 µM),0
10,O=C1NC(=O)/C(=C/c2ccc(-c3ccc(F)cc3O)o2)S1 (10 µM),0
11,Cc1cc(C(C)Nc2ccccc2)c2nc(N3CCOCC3)cc(=O)n2c1 (centres undefined) (10 µM),0
12,Cc1cccc(-c2[nH]ncc2-c2ccc3ncccc3n2)n1 (10 µM),0
13,Cc1cc2ncc(-c3ccccc3)nc2cc1C (10 µM),0
14,COc1cc(C(=O)N2CCC(N3CCN(C)CC3)CC2)ccc1Nc1ncc2c(n1)N(C)c1ccccc1C(=O)N2C (10 µM),0
15,COc1cnccc1Nc1nc(-c2nn(Cc3c(F)cc(OCCO)cc3F)c3ccccc23)ncc1OC (10 µM),0
16,C[C@@H]1COCCN1c1cc(C2([S@](C)(=N)=O)CC2)nc(-c2cc[nH]c3nccc2-3)n1 [Ceralasertib] (2.5 µM),0
17,"CC(C)C[C@H](NC(=O)[C@H](CCCCN)NC(=O)[C@H](CO)NC(=O)[C@@H](N)CC(C)C)C(N)=O [LSKL, Inhibitor of Thrombospondin (TSP-1) (TFA)] (10 µM)",0

# Compounds above that have a cyano group:
row,Structure (SMILES),number of time points
1,CC(C)c1ccc(CC(=O)N2CCN(c3ccc(C#N)nn3)CC2)cc1 (10 µM),0
6,C=C(F)C(=O)N1CCN(c2nc(OC[C@@H]3CCCN3C)nc3c2CCN(c2cccc4cccc(Cl)c24)C3)C[C@@H]1CC#N (2.5 µM),0

# Next part:

row,Structure (SMILES),number of time points
1,Cn1cc(-c2cc3c(N4CCN(c5ncc([C@@](C)(N)c6ccc(F)cc6)cn5)CC4)ncnn3c2)cn1 [Avapritinib] (2.5 µM),4
2,CC(C)(C)C(=O)N1N=CC[C@H]1c1ccccc1 (10 µM),0
3,N#Cc1ccc(-c2c(-c3ncn[nH]3)sc(N3CCOCC3)c2C#N)c(F)c1 (10 µM),1
4,O=[N+]([O-])c1ccc(Sc2cccc[n+]2[O-])c2nonc12 (2.5 µM),0
5,Nc1nc2cc(-c3ccc4ncc(C(=O)N5CCOCC5)n4c3)ccc2o1 [Serabelisib] (10 µM),0
6,NCCCCCCNS(=O)(=O)c1cccc2c(Cl)cccc12 [W-7 (hydrochloride)] (10 µM),0
7,COc1ccc(CCNc2ncc3c(=O)n(-c4cccc(F)c4)c(=O)[nH]c3n2)cc1OC (2 µM),0
8,CCc1ccc(C(=O)COc2ccc(CC3SC(=O)NC3=O)cc2)nc1 (centres undefined) (10 µM),0
9,Nc1cc(C(F)F)c(-c2nc(N3C4CCC3COC4)nc(N3C4CCC3COC4)n2)cn1 (2.5 µM),0
10,CC(C)(C)c1cc(C(c2cc3c(cc2O)OCO3)N2CCOCC2)cc(C(C)(C)C)c1O (centres undefined) (2.5 µM),0
11,N#C/C(=C(/N)Sc1ccc(N)cc1)c1ccccc1C(F)(F)F (10 µM),0
12,CC(C)c1cnn2c(NCc3ccccc3-n3cccn3)nc(OC3CCCNC3)nc12 (centres undefined) (2.5 µM),0
13,COc1cc(C(C)=O)cc(OC)c1O [Acetosyringone] (10 µM),0
14,O=S(=O)(c1cccc2cnccc12)N1CCNCC1 (10 µM),0
15,CN1C(=O)NC(Cc2c[nH]c3c(Cl)cccc23)C1=O (racemic) [Necrostatin 2 (racemate)] (10 µM),0
16,COc1ccc2c(c1)c(C1=C(c3c[nH]c4ccccc34)C(=O)NC1=O)cn2CCCN(C)C (10 µM),0
17,COc1cc(-c2cc(-c3cc(OC)c(OC)c(OC)c3)cc(C(F)P(=O)(OCOC(=O)C(C)(C)C)OCOC(=O)C(C)(C)C)c2)cc(OC)c1OC (centres undefined) [Stafia-1-dipivaloyloxymethyl ester] (2.5 µM),0
